Binding data for three molecules are collected here from publication doi:10.1101/2023.09.24.558918.

Assay [1] has as its target T1, Piwi protein (endogenous, Drosophila) (Drosophila (endogenous in adult flies and ovaries)) (UniProt Q9VKM1).
T1 sequence: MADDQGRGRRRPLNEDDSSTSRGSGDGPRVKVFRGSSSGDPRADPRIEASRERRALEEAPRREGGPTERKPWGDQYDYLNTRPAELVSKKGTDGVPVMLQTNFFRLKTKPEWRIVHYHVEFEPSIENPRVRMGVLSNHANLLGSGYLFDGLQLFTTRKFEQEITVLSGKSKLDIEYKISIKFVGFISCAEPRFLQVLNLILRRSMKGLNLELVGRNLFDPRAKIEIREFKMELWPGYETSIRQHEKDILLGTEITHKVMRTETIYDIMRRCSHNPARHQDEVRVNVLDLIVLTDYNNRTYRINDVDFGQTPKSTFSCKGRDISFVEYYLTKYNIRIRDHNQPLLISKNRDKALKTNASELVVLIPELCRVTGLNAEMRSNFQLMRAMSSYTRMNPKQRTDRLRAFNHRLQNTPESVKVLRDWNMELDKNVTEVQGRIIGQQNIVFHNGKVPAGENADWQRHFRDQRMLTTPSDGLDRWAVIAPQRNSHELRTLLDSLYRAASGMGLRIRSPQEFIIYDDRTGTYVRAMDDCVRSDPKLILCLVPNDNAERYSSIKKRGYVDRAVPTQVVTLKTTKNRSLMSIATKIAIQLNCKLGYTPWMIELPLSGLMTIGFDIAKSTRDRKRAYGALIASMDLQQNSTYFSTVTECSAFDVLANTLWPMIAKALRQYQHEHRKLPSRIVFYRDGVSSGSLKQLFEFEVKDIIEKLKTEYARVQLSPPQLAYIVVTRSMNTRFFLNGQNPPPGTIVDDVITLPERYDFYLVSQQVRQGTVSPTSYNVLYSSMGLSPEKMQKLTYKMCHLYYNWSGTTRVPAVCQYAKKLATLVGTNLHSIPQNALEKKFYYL
In words: co-IP.

For assay [2], the target named is T2, Recombinant GST-Piwi (Drosophila) (UniProt Q9VKM1).
T2 sequence: T1 sequence
Kind of assay: pull-down.

Assay [3] addresses Recombinant 6X His-Flag-DNMT3L. Kind of assay: pull-down.
The target in assay [4] is FLAG-DNMT3L expressed in transgenic Drosophila. Kind of assay: co-IP.

These are yes or no findings as the source states them, for the method shown. Binding calls can cover weak binding; strength is not graded here. For some of these results: Tags and fused reporters may be left off the sequences shown. For some of these results: In cells and extracts the contact can be indirect.

For the molecule “FLAG-DNMT3L expressed in transgenic Drosophila”, the binding entry in assay [1] is “binds”. Take Recombinant 6X His-Flag-DNMT3L: the binding entry in assay [2] was “binds”.

B1: Piwi protein (endogenous, Drosophila) (protein, UniProt Q9VKM1 1-843)
chain: T1 sequence
Consider B1, for which the binding result in assay [3] and in assay [4] was “binds” each time.
